From US20050079503A1, “Binding domain of Siah (seven in absentia homolog) protein” (PETER MacCALLUM CANCER INSTITUTE, ST. VINCENT'S INSTITUTE …, priority 2001, published 2005) come the findings set out here.

Results are given in words; binding and its absence hold for the method and conditions named. Some entries that bind do so weakly or less than the wild type. Where a sequence is shown, tags or fusion partners need not be part of it.

The target in experiment [1] is T1, GST-PHYL108-130 (Drosophila).
T1 construct: also called PHYL peptide as a fusion protein with glutathione-S-transferase; not shown: glutathione-S-transferase (GST) fusion partner
T1 chain: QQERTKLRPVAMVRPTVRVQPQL
The experiment in a line: pull-down on glutathione-Sepharose beads carrying the GST fusion of the peptide.

Experiment [2] has as its target T1, GST-PHYL108-130. In words: pull-down on GSH-Sepharose with immobilised GST-PHYL108-130, Coomassie-stained SDS-PAGE.
Experiment [3] concerns the target T1, GST-PHYL108-130. The experiment in a line: pull-down: GST-PHYL108-130 on GSH-Sepharose mixed with MBP-Siah, Coomassie-stained SDS-PAGE.

B1: SINA (seven in absentia), Drosophila (protein, UniProt P21461 1-314, looked up)
chain: MSNKINPKRREPTAAAAGAGATGVATNTSTSTGSSSAGNTSSANTSSSSSSSLSSAGGGDAGMSADLTSLFECPVCFDYVLPPILQCSSGHLVCVSCRSKLTCCPTCRGPLANIRNLAMEKVASNVKFPCKHSGYGCTASLVYTEKTEHEETCECRPYLCPCPGASCKWQGPLDLVMQHLMMSHKSITTLQGEDIVFLATDINLPGAVDWVMMQSCFGHHFMLVLEKQEKYDGHQQFFAIVQLIGSRKEAENFVYRLELNGNRRRLTWEAMPRSIHEGVASAIHNSDCLVFDTSIAQLFADNGNLGINVTISLV
As for B1, the binding entry with GST-PHYL108-130 [1] was “binds”.

B2: MBP-Siah1a-ZC fusion protein (protein, mouse, UniProt P61092 80-282, looked up, not shown: large carriers)
chain: GSIRNLAMEKVANSVLFPCKYASSGCEITLPHTEKAEHEELCEFRPYSCPCPGASCKWQGSLDAVMPHLMHQHKSITTLQGEDIVFLATDINLPGAVDWVMMQSCFGFHFMLVLEKQEKYDGHQQFFAIVQLIGTRKQAENFAYRLELNGHRRRLTWEATPRSIHEGIATAIMNSDCLVFDTSIAQLFAENGNLGINVTISMC
In the case of B2, the binding result in the experiment with GST-PHYL108-130 [2] is reported as “binds”.

B3: MBP-Siah (protein, UniProt P61092 80-282, looked up, not shown: large carriers)
chain: B2 chain
As for B3, the binding result with GST-PHYL108-130 [1] and with GST-PHYL108-130 [3] was “binds” throughout.
